# Source: doi:10.1101/2024.08.09.607194
# By UniProt entry, the sequences of proteins in these tests, tags left out.
# UniProt Q71RJ2: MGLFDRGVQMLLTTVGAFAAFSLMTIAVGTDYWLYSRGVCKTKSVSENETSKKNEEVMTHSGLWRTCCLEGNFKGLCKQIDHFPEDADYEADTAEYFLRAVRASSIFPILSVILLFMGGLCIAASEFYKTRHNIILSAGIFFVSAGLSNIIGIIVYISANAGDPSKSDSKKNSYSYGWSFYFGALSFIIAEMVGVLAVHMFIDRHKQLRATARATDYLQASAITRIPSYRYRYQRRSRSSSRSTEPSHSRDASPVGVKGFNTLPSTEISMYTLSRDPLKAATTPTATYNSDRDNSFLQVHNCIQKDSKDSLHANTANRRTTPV
# UniProt O88943: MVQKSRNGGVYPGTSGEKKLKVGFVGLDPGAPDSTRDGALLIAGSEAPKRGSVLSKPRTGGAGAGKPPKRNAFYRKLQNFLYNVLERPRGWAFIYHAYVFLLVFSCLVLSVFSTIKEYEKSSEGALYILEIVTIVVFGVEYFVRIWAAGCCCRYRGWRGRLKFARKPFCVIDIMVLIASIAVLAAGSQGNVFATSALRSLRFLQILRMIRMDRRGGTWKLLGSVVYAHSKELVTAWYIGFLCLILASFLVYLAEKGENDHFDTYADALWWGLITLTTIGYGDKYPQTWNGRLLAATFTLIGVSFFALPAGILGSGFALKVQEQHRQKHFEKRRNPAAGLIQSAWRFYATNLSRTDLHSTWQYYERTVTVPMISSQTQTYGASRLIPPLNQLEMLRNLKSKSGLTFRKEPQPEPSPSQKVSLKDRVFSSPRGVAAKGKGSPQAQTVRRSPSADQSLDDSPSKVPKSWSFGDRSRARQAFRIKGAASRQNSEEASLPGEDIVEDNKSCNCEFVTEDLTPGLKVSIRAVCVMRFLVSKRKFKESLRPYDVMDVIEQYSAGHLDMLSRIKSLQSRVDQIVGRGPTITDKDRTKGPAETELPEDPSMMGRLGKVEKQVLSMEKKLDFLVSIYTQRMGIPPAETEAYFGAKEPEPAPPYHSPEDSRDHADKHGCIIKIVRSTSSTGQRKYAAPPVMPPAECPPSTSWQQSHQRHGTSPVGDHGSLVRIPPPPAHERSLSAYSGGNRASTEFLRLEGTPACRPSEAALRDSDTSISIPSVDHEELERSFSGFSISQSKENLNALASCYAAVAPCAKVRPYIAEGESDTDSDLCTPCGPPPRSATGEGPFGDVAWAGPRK
# These are yes or no findings as the source states them, for the method shown. In cells and extracts the contact can be indirect. These calls come from enrichment with a bait or labelling near it, and not all partners need be listed.
# Molecular target: TARP-γ2 (stargazin; endogenous, rat neurons) (rat (endogenous in cortical and hippocampal neurons)) (UniProt Q71RJ2)
# Experiment: affinity purification with mass spectrometry
substance,measurement,value
"Kv7.2 subunit of M-channels (endogenous, rat neurons) (from UniProt O88943 1-852)",binding,binds
